Laboratory results published in patent US20160194358A1, “LINEAR PEPTIDE ANTIBIOTCS” (priority 2013, published 2016).
At least one compound was matched to its structure with a doubt left. Where a SMILES comes first, the peptide text is derived from it. [ ]: non-standard residue; d: D form. The star is where a group is joined. boroAla((+)-pinanediol) = C[C@H](N*)B1O[C@@H]2C[C@@H]3C[C@@H](C3(C)C)[C@]2(C)O1; Benzenesulfonyl(4-Ph) = O=S(=O)(c1ccc(-c2ccccc2)cc1)*; Benzoyl(4-(4-Cl-Ph)) = O=C(c1ccc(-c2ccc(Cl)cc2)cc1)*; X7 = C[C@H](N*)C(=O)C1CO1; Dap = NC[C@H](N)C(=O)O

Protein sequences, listed by entry. Tags and fused reporters are not part of them. Lines headed by an entry give the natural chain unless they say otherwise; changes in a name come on top.
UniProt P00803: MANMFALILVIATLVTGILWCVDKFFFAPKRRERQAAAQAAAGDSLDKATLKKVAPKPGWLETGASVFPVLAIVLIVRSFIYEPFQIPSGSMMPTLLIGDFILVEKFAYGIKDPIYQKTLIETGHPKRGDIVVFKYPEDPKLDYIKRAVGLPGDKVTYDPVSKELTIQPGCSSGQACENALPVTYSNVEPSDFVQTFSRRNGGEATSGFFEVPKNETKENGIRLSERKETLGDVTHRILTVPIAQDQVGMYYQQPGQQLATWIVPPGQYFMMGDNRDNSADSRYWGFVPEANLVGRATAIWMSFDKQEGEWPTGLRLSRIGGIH

Target: T1, E. coli SPase (Escherichia coli, UniProt P00803)
T1 construct: Full length His-tagged E. coli SPase proteins; His; made in house; host or cells: E. coli BL21(DE3)
Experiment: Biochemical SPase activity assay, fluorogenic peptide substrate, E. coli enzyme
Settings: 20 μM substrate, 10 minutes preincubation, read-out: IC 50 (nM) E. coli
Protocol: Full length His-tagged E. coli SPase proteins were expressed in E. coli BL21(DE3) containing the plasmid pET23-lepB. Briefly, saturated overnight cultures grown in 20 ml of Luria-Bertani medium supplemented with ampicillin were subcultures into 1.5 L of Luria-Bertani, and shaken at 37° C. until an optical density at 600 nm of 0.4-0.5 was achieved.
Signal peptidase enzyme activity of the above proteins was measured using two fluorogenic peptide substrates (decanoyl-LSSPAYNO2A ? ADKabzPD and decanoyl-LTPTAYNO2A ? ASKKabzDD), where abz is the fluorescence donor 2-aminobenzamide, YNO2 is the fluorescence acceptor 3-nitrotyrosine, and the cleavage site is indicated with an arrow. […] Reaction progress was monitored by measuring the increase in fluorescence signal (excitation at 314 nm, emission at 416 nm) using a SpectraMax M2 fluorescence microplate reader. […] Following this incubation, fluorogenic substrate was added to a final concentration of 20 μM and the increase in fluorescence, corresponding to substrate cleavage, was monitored continuously at room temperature for 1 hour. Initial reaction rates were calculated based on the rate of increase in fluorescence during the reaction. Reaction rates were plotted as a function of compound concentration, and IC50 values are determined nonlinear regression analysis (SoftMaxPro 5.4, Molecular Devices™) of the sigmoidal dose-response curve.

SMILES	IC50
C[C@H](NC(=O)[C@H](CCCCN)NC(=O)[C@H](C)NC(=O)[C@@H](NC(=O)[C@H](CCCCN)NS(=O)(=O)c1ccc(-c2ccccc2)cc1)[C@@H](C)O)B1O[C@@H]2C[C@@H]3C[C@@H](C3(C)C)[C@]2(C)O1 [Compound 134] ({Benzenesulfonyl(4-Ph)}-KTAK-{boroAla((+)-pinanediol)})	3800 nM
C[C@H](NC(=O)[C@H](CCCCN)NC(=O)[C@H](CN)NC(=O)c1ccc(-c2ccc(Cl)cc2)cc1)C(=O)N[C@@H](CCCCN)C(=O)N[C@@H](C)C(=O)C1CO1 (some centres unmarked) [Compound 209] ({Benzoyl(4-(4-Cl-Ph))}-[Dap]KAK-X7; N-terminus and C-terminus assumed)	16 nM
